Results reported in publication PMC12989817.
No constants are given. Whether binding was seen depends on the method and setting. Binding seen in cells or lysates may run through a third protein. A yes stands for co-enrichment or nearness to the bait. Other partners may have been found.

B1: RGS14 (protein, UniProt O43566 1-566)
chain: MPGKPKHLGVPNGRMVLAVSDGELSSTTGPQGQGEGRGSSLSIHSLPSGPSSPFPTEEQPVASWALSFERLLQDPLGLAYFTEFLKKEFSAENVTFWKACERFQQIPASDTQQLAQEARNIYQEFLSSQALSPVNIDRQAWLGEEVLAEPRPDMFRAQQLQIFNLMKFDSYARFVKSPLYRECLLAEAEGRPLREPGSSRLGSPDATRKKPKLKPGKSLPLGVEELGQLPPVEGPGGRPLRKSFRRELGGTANAALRRESQGSLNSSASLDLGFLAFVSSKSESHRKSLGSTEGESESRPGKYCCVYLPDGTASLALARPGLTIRDMLAGICEKRGLSLPDIKVYLVGNEQALVLDQDCTVLADQEVRLENRITFELELTALERVVRISAKPTKRLQEALQPILEKHGLSPLEVVLHRPGEKQPLDLGKLVSSVAAQRLVLDTLPGVKISKARDKSPCRSQGCPPRTQDKATHPPPASPSSLVKVPSSATGKRQTCDIEGLVELLNRVQSSGAHDQRGLLRKEDLVLPEFLQLPAQGPSSEETPPQTKSAAQPIGGSLNSTTDSAL
B2: AP3D1 (protein, UniProt O14617 1-1153)
chain: MALKMVKGSIDRMFDKNLQDLVRGIRNHKEDEAKYISQCIDEIKQELKQDNIAVKANAVCKLTYLQMLGYDISWAAFNIIEVMSASKFTFKRIGYLAASQSFHEGTDVIMLTTNQIRKDLSSPSQYDTGVALTGLSCFVTPDLARDLANDIMTLMSHTKPYIRKKAVLIMYKVFLKYPESLRPAFPRLKEKLEDPDPGVQSAAVNVICELARRNPKNYLSLAPLFFKLMTSSTNNWVLIKIIKLFGALTPLEPRLGKKLIEPLTNLIHSTSAMSLLYECVNTVIAVLISLSSGMPNHSASIQLCVQKLRILIEDSDQNLKYLGLLAMSKILKTHPKSVQSHKDLILQCLDDKDESIRLRALDLLYGMVSKKNLMEIVKKLMTHVDKAEGTTYRDELLTKIIDICSQSNYQYITNFEWYISILVELTRLEGTRHGHLIAAQMLDVAIRVKAIRKFAVSQMSALLDSAHLLASSTQRNGICEVLYAAAWICGEFSEHLQEPHHTLEAMLRPRVTTLPGHIQAVYVQNVVKLYASILQQKEQAGEAEGAQAVTQLMVDRLPQFVQSADLEVQERASCILQLVKHIQKLQAKDVPVAEEVSALFAGELNPVAPKAQKKVPVPEGLDLDAWINEPLSDSESEDERPRAVFHEEEQRRPKHRPSEADEEELARRREARKQEQANNPFYIKSSPSPQKRYQDTPGVEHIPVVQIDLSVPLKVPGLPMSDQYVKLEEERRHRQKLEKDKRRKKRKEKEKKGKRRHSSLPTESDEDIAPAQQVDIVTEEMPENALPSDEDDKDPNDPYRALDIDLDKPLADSEKLPIQKHRNTETSKSPEKDVPMVEKKSKKPKKKEKKHKEKERDKEKKKEKEKKKSPKPKKKKHRKEKEERTKGKKKSKKQPPGSEEAAGEPVQNGAPEEEQLPPESSYSLLAENSYVKMTCDIRGSLQEDSQVTVAIVLENRSSSILKGMELSVLDSLNARMARPQGSSVHDGVPVPFQLPPGVSNEAQYVFTIQSIVMAQKLKGTLSFIAKNDEGATHEKLDFRLHFSCSSYLITTPCYSDAFAKLLESGDLSMSSIKVDGIRMSFQNLLAKICFHHHFSVVERVDSCASMYSRSIQGHHVCLLVKKGENSVSVDGKCSDSTLLSNLLEEMKATLAKC
B3: FLOT1 (protein, UniProt O75955 1-427)
chain: MFFTCGPNEAMVVSGFCRSPPVMVAGGRVFVLPCIQQIQRISLNTLTLNVKSEKVYTRHGVPISVTGIAQVKIQGQNKEMLAAACQMFLGKTEAEIAHIALETLEGHQRAIMAHMTVEEIYKDRQKFSEQVFKVASSDLVNMGISVVSYTLKDIHDDQDYLHSLGKARTAQVQKDARIGEAEAKRDAGIREAKAKQEKVSAQYLSEIEMAKAQRDYELKKAAYDIEVNTRRAQADLAYQLQVAKTKQQIEEQRVQVQVVERAQQVAVQEQEIARREKELEARVRKPAEAERYKLERLAEAEKSQLIMQAEAEAASVRMRGEAEAFAIGARARAEAEQMAKKAEAFQLYQEAAQLDMLLEKLPQVAEEISGPLTSANKITLVSSGSGTMGAAKVTGEVLDILTRLPESVERLTGVSISQVNHKPLRTA
B4: PRPF3 (protein, UniProt O43395 1-683)
chain: MALSKRELDELKPWIEKTVKRVLGFSEPTVVTAALNCVGKGMDKKKAADHLKPFLDDSTLRFVDKLFEAVEEGRSSRHSKSSSDRSRKRELKEVFGDDSEISKESSGVKKRRIPRFEEVEEEPEVIPGPPSESPGMLTKLQIKQMMEAATRQIEERKKQLSFISPPTPQPKTPSSSQPERLPIGNTIQPSQAATFMNDAIEKARKAAELQARIQAQLALKPGLIGNANMVGLANLHAMGIAPPKVELKDQTKPTPLILDEQGRTVDATGKEIELTHRMPTLKANIRAVKREQFKQQLKEKPSEDMESNTFFDPRVSIAPSQRQRRTFKFHDKGKFEKIAQRLRTKAQLEKLQAEISQAARKTGIHTSTRLALIAPKKELKEGDIPEIEWWDSYIIPNGFDLTEENPKREDYFGITNLVEHPAQLNPPVDNDTPVTLGVYLTKKEQKKLRRQTRREAQKELQEKVRLGLMPPPEPKVRISNLMRVLGTEAVQDPTKVEAHVRAQMAKRQKAHEEANAARKLTAEQRKVKKIKKLKEDISQGVHISVYRVRNLSNPAKKFKIEANAGQLYLTGVVVLHKDVNVVVVEGGPKAQKKFKRLMLHRIKWDEQTSNTKGDDDEESDEEAVKKTNKCVLVWEGTAKDRSFGEMKFKQCPTENMAREHFKKHGAEHYWDLALSESVLESTD
B5: TNPO2 (protein, UniProt O14787 1-897)
chain: MDWQPDEQGLQQVLQLLKDSQSPNTATQRIVQDKLKQLNQFPDFNNYLIFVLTRLKSEDEPTRSLSGLILKNNVKAHYQSFPPPVADFIKQECLNNIGDASSLIRATIGILITTIASKGELQMWPELLPQLCNLLNSEDYNTCEGAFGALQKICEDSSELLDSDALNRPLNIMIPKFLQFFKHCSPKIRSHAIACVNQFIMDRAQALMDNIDTFIEHLFALAVDDDPEVRKNVCRALVMLLEVRIDRLIPHMHSIIQYMLQRTQDHDENVALEACEFWLTLAEQPICKEVLASHLVQLIPILVNGMKYSEIDIILLKGDVEEDEAVPDSEQDIKPRFHKSRTVTLPHEAERPDGSEDAEDDDDDDALSDWNLRKCSAAALDVLANVFREELLPHLLPLLKGLLFHPEWVVKESGILVLGAIAEGCMQGMVPYLPELIPHLIQCLSDKKALVRSIACWTLSRYAHWVVSQPPDMHLKPLMTELLKRILDGNKRVQEAACSAFATLEEEACTELVPYLSYILDTLVFAFGKYQHKNLLILYDAIGTLADSVGHHLNQPEYIQKLMPPLIQKWNELKDEDKDLFPLLECLSSVATALQSGFLPYCEPVYQRCVTLVQKTLAQAMMYTQHPEQYEAPDKDFMIVALDLLSGLAEGLGGHVEQLVARSNIMTLLFQCMQDSMPEVRQSSFALLGDLTKACFIHVKPCIAEFMPILGTNLNPEFISVCNNATWAIGEICMQMGAEMQPYVQMVLNNLVEIINRPNTPKTLLENTGRLTSPSAIPAITIGRLGYVCPQEVAPMLQQFIRPWCTSLRNIRDNEEKDSAFRGICMMIGVNPGGVVQDFIFFCDAVASWVSPKDDLRDMFYKILHGFKDQVGEDNWQQFSEQFPPLLKERLAAFYGV
B6: STXBP3 (protein, UniProt O00186 1-592)
chain: MAPPVAERGLKSVVWQKIKATVFDDCKKEGEWKIMLLDEFTTKLLASCCKMTDLLEEGITVVENIYKNREPVRQMKALYFITPTSKSVDCFLHDFASKSENKYKAAYIYFTDFCPDNLFNKIKASCSKSIRRCKEINISFIPHESQVYTLDVPDAFYYCYSPDPGNAKGKDAIMETMADQIVTVCATLDENPGVRYKSKPLDNASKLAQLVEKKLEDYYKIDEKSLIKGKTHSQLLIIDRGFDPVSTVLHELTFQAMAYDLLPIENDTYKYKTDGKEKEAILEEEDDLWVRIRHRHIAVVLEEIPKLMKEISSTKKATEGKTSLSALTQLMKKMPHFRKQITKQVVHLNLAEDCMNKFKLNIEKLCKTEQDLALGTDAEGQKVKDSMRVLLPVLLNKNHDNCDKIRAILLYIFSINGTTEENLDRLIQNVKIENESDMIRNWSYLGVPIVPQSQQGKPLRKDRSAEETFQLSRWTPFIKDIMEDAIDNRLDSKEWPYCSQCPAVWNGSGAVSARQKPRANYLEDRKNGSKLIVFVIGGITYSEVRCAYEVSQAHKSCEVIIGSTHVLTPKKLLDDIKMLNKPKDKVSLIKDE
B7: MYO1G (protein, UniProt B0I1T2 1-1018)
chain: MEDEEGPEYGKPDFVLLDQVTMEDFMRNLQLRFEKGRIYTYIGEVLVSVNPYQELPLYGPEAIARYQGRELYERPPHLYAVANAAYKAMKHRSRDTCIVISGESGAGKTEASKHIMQYIAAVTNPSQRAEVERVKDVLLKSTCVLEAFGNARTNRNHNSSRFGKYMDINFDFKGDPIGGHIHSYLLEKSRVLKQHVGERNFHAFYQLLRGSEDKQLHELHLERNPAVYNFTHQGAGLNMTVHSALDSDEQSHQAVTEAMRVIGFSPEEVESVHRILAAILHLGNIEFVETEEGGLQKEGLAVAEEALVDHVAELTATPRDLVLRSLLARTVASGGRELIEKGHTAAEASYARDACAKAVYQRLFEWVVNRINSVMEPRGRDPRRDGKDTVIGVLDIYGFEVFPVNSFEQFCINYCNEKLQQLFIQLILKQEQEEYEREGITWQSVEYFNNATIVDLVERPHRGILAVLDEACSSAGTITDRIFLQTLDMHHRHHLHYTSRQLCPTDKTMEFGRDFRIKHYAGDVTYSVEGFIDKNRDFLFQDFKRLLYNSTDPTLRAMWPDGQQDITEVTKRPLTAGTLFKNSMVALVENLASKEPFYVRCIKPNEDKVAGKLDENHCRHQVAYLGLLENVRVRRAGFASRQPYSRFLLRYKMTCEYTWPNHLLGSDKAAVSALLEQHGLQGDVAFGHSKLFIRSPRTLVTLEQSRARLIPIIVLLLQKAWRGTLARWRCRRLRAIYTIMRWFRRHKVRAHLAELQRRFQAARQPPLYGRDLVWPLPPAVLQPFQDTCHALFCRWRARQLVKNIPPSDMPQIKAKVAAMGALQGLRQDWGCRRAWARDYLSSATDNPTASSLFAQRLKTLQDKDGFGAVLFSSHVRKVNRFHKIRNRALLLTDQHLYKLDPDRQYRVMRAVPLEAVTGLSVTSGGDQLVVLHARGQDDLVVCLHRSRPPLDNRVGELVGVLAAHCQGEGRTLEVRVSDCIPLSHRGVRRLISVEPRPEQPEPDFRCARGSFTLLWPSR
B8: PLRG1 (protein, UniProt O43660 1-514)
chain: MVEEVQKHSVHTLVFRSLKRTHDMFVADNGKPVPLDEESHKRKMAIKLRNEYGPVLHMPTSKENLKEKGPQNATDSYVHKQYPANQGQEVEYFVAGTHPYPPGPGVALTADTKIQRMPSESAAQSLAVALPLQTKADANRTAPSGSEYRHPGASDRPQPTAMNSIVMETGNTKNSALMAKKAPTMPKPQWHPPWKLYRVISGHLGWVRCIAVEPGNQWFVTGSADRTIKIWDLASGKLKLSLTGHISTVRGVIVSTRSPYLFSCGEDKQVKCWDLEYNKVIRHYHGHLSAVYGLDLHPTIDVLVTCSRDSTARIWDVRTKASVHTLSGHTNAVATVRCQAAEPQIITGSHDTTIRLWDLVAGKTRVTLTNHKKSVRAVVLHPRHYTFASGSPDNIKQWKFPDGSFIQNLSGHNAIINTLTVNSDGVLVSGADNGTMHLWDWRTGYNFQRVHAAVQPGSLDSESGIFACAFDQSESRLLTAEADKTIKVYREDDTATEETHPVSWKPEIIKRKRF

Target: N-terminal Kv1.3-TurboID (V5-TurboID-Kv1.3 fusion) (human) (UniProt P22001)
Assay: proximity labelling; TurboID fused to Kv1.3, stably expressed in Jurkat T-cells; 200 μM biotin for 1 h; lysis in 8 M urea; biotinylated proteins enriched on streptavidin magnetic beads; label-free quantitative MS against untransduced Jurkat T-cells or between lines (>4-fold, p<0.05; n=3)

binding, binds:
B1, B2, B3, B4, B5, B6, B7, B8
